These are yes or no findings as the source states them, for the method shown. Some binding calls cover weakened binding; strength is not graded here. Blank lines part the entries; values can stand above or below the molecule they belong to.
Tests used:
[1] = biological target: T1, CysBC-Pγ24-45 (Cys-Pγ24-45 peptide labeled at the N-terminal Cys with 3-(bromoacetyl)-7-diethyl-aminocoumarin) (UniProt P04972); experiment: other fluorescence titration; competition: excess of unlabeled CysPγ24-45 added to CysBC-Pγ24-45 and PDE6β1-313; data not shown; both purified
T1 sequence (peptide, N-terminal Cys labeled with 3-(bromoacetyl)-7-diethyl-aminocoumarin (BC)): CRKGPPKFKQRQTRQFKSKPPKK

The chains behind the UniProt entries cited, without tags or fusion partners. Where a name states a change or a piece, a line headed by the entry shows the natural chain unless it says otherwise. Residues count along the entry.
UniProt P35913, residues 1-313: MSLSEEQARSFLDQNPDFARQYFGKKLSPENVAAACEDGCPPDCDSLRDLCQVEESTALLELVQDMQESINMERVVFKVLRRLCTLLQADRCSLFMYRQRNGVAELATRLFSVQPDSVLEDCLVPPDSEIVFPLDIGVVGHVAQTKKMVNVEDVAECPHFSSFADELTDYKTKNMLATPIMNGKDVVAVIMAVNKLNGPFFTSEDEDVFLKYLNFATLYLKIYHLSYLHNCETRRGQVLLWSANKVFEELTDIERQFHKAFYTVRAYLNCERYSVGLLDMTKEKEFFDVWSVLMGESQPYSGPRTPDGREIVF

[2] = biological target: PDE6β1-313 (PDE6-specific N-terminal portion of the human rod cGMP phosphodiesterase type 6 β-subunit truncation mutant) (human) (UniProt P35913); experiment: as above

binding [1]: binds
Molecule: PDE6β1-313 (PDE6-specific N-terminal portion of the human rod cGMP phosphodiesterase type 6 β-subunit truncation mutant) (from UniProt P35913-1 1-313) (domain or fragment)

binding [2]: binds
B1: unlabeled CysPγ24-45 (peptide, UniProt P04972 24-45)
peptide: CRKGPPKFKQRQTRQFKSKPPKK
